These are yes or no findings as the source states them, for the method shown. Binding can be weak; no strength is given. Sequences can lack the tags named with a protein.
Molecular target: T1, Asp1, untagged, as co-expressed with Asp3 and tagged Asp2 (Streptococcus gordonii) (UniProt Q9AET8)
T1 sequence: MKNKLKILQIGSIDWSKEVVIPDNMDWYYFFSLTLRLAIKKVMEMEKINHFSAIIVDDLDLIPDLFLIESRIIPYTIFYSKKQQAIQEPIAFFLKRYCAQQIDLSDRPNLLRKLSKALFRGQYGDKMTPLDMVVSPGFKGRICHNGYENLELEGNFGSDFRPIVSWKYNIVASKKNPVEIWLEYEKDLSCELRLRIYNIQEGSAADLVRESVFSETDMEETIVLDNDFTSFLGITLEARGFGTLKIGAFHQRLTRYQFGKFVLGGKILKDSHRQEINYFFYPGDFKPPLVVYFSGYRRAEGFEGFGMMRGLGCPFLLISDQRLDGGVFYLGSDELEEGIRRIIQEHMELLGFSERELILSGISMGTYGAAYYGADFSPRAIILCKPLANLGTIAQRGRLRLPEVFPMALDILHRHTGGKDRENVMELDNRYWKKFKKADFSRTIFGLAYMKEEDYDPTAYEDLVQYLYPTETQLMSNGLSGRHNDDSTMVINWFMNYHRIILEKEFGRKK
Experiment: SEC

## Asp3 (accessory Sec protein 3) (Streptococcus gordonii)
  binding: binds

Source: paper doi:10.1101/219105
